Common to all, as to assay: Antidermatophyte plaque growth inhibition
What all share (assay type): cell-based

Test [1] relates to Trichophyton tonsurans. As to conditions: T. tonsurans growth.
In test [2] the test system is Trichophyton mentagrophytes. As to conditions: T. mentagrophytes growth.
Test [3] concerns Epidermophyton floccosum. As to conditions: E. floccosum growth.
For test [4], the system named is Microsporum canis. As to conditions: M. canis growth.
In test [5] the test system is Microsporum gypseum. As to conditions: Nannizzia gypsea; M. gypseum growth.

In the case of `Clc1ccc(COC(Cn2ccnc2)c2ccc(Cl)cc2Cl)cc1` (centres unmarked) [Econazole nitrate, reference compound], the IC50 (usually the concentration that gives 50% inhibition) came out at 0.13 ± 0.008 µg/mL in test [1]; 0.006 ± 0.0001 µg/mL in test [2]; 0.47 ± 0.015 µg/mL in test [3]; 0.51 ± 0.02 µg/mL in test [4]; 0.05 ± 0.0001 µg/mL in test [5].

(Values after article PMC7570844, “Skin Damages—Structure Activity Relationship of Benzimidazole Derivatives Bearing a 5-Membered Ring System” (Molecules, 2020).)
